The target of experiment [1] is T1, Full-length human MIF (macrophage migration inhibitory factor), Gal4 DNA-BD fusion in pGBKT7 (human) (UniProt P14174).
T1 sequence: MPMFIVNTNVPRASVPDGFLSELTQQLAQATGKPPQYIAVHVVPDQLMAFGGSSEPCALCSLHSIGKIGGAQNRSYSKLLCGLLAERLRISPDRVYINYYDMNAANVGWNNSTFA
Description: two-hybrid; co-transformation / direct mating: coding regions in pGADT7 in Y2HGold expressing pGBKT7-MIF constructs, selective agar plates (DDO, DDO/X/A, QDO), 3-5 days at 30 °C.

The chains behind the UniProt entries cited, without tags or fusion partners. Residues count along the entry.
UniProt Q92743, residues 288-480: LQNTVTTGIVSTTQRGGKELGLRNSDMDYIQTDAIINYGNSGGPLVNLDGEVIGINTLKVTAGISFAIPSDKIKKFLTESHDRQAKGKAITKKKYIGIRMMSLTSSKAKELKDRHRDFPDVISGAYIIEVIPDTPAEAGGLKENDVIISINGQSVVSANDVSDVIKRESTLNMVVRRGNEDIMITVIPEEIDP
Truncated HTRA1 construct containing the PDZ domain (Q92743, residues 365-467): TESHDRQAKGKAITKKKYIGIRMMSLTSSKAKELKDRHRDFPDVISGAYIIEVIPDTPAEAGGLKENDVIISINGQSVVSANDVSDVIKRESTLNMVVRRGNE

Experiment [2] has as its target T2, C-terminally truncated MIF, the first 38 amino acids (with the first alpha-helix), Gal4 DNA-BD fusion (human) (UniProt P14174).
T2 sequence: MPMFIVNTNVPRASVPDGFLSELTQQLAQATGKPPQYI
The experiment is described as above.

In experiment [3] the target is T1, Full-length human MIF (macrophage migration inhibitory factor), Gal4 DNA-BD fusion in pGBKT7 (human). Description: two-hybrid; Matchmaker Gold Y2H screen: pre-transformed human fetal brain cDNA library in Y187 mated with Y2HGold expressing MIF as bait.

No constants are given. Whether binding was seen depends on the method and setting. Some binding calls cover weakened binding; strength is not graded here. Where a sequence is shown, tags or fusion partners need not be part of it.

Regarding “Truncated HTRA1 construct containing the PDZ domain (from UniProt Q92743 365-467) (domain or fragment)”, the binding entry in experiment [1] is “no binding”.
Turning to “HTRA1 cDNA clone from the human fetal brain library: C-terminal 193 amino acids (part of the protease domain and the whole PDZ domain) (from UniProt Q92743 288-480) (domain or fragment)”, the binding result in experiment [2], in experiment [1] and in experiment [3] was “binds” in each case.
